# This is one part of the list. These are further read-outs of the screen, such as a control signal, another cell line or another target. No call is given for them. The list favours compounds with an active or inconclusive main result. Potencies come from curve fits of mixed quality, noted in brackets.
# Experiment: qHTS Assay to Find Inhibitors of Chronic Active B-Cell Receptor Signaling
# Details: ABC-DLBCL IkBa-CBG/CBR reporter, luminescence ratio (green luciferase fused to IkBa over red control in TMD8 lymphoma cells), 4 h
# Method in brief: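 TMD8 ABC-DLBCL cells carrying doxycycline-inducible green luciferase fused to IkappaBalpha plus unfused red luciferase were exposed to compounds (up to 46 uM) for 4 hrs at 37C. Activity came from the overlap-corrected green/red luminescence ratio.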
# [1] = measured here: CBR red luminescence, cell number
# [2] = measured here: IkBa-CBG green luminescence
Structure (SMILES),AC50 [1],AC50 [2]
COC(=O)c1[nH]c2ccc(Cl)cc2c1NC(=O)CCN1CCN(C2CCCCC2)CC1,"13 µM [rising, partial curve, poor fit]",–
Cc1cccc2sc(N(CCCN(C)C)C(=O)c3cc4ccccc4oc3=O)nc12,"23.1 µM [falling, single point]",–
CN(c1ccccc1)S(=O)(=O)c1ccc(Cl)c(C(=O)Nc2nc3ccccc3[nH]2)c1,"9.2 µM [falling, partial curve]",–
Cc1cc(C)cc(OCCn2c(C3CC(=O)N(c4ccccc4Cl)C3)nc3ccccc32)c1 (configuration not stated),"2.06 µM [rising, full curve]",–
O=C(NNC(=S)Nc1ccccc1Cl)c1ccccc1Br,"14.1 µM [falling, single point]","5.62 µM [falling, single point]"
COc1ccc(C2CC(=O)N(C)c3ccccc3S2)cc1 (configuration not stated),"7.08 µM [falling, partial curve]",–
CC(C)n1cnc2cc(NCc3ccco3)ccc21,"7.08 µM [rising, full curve]",–
Cc1occc1-c1nnc(SCC(=O)c2cc3ccccc3oc2=O)o1,"14.1 µM [falling, single point]",–
CC1=C(C#N)C(c2ccccc2O)C(C#N)=C(C)N1,"0.631 µM [falling, full curve, poor fit]",–
Cc1nnc(N/N=C/c2c(Cl)cccc2Cl)n1N,"5.62 µM [rising, single point]",–
CCOC(=O)C1CCN(C(=O)CCNC(=O)c2cc(OC)c(OC)c(OC)c2)CC1,"14.1 µM [rising, single point]",–
Cc1[nH]c(-c2ccc(F)cc2)cc1C(=O)N1CCN(c2ccccc2)CC1,"17.8 µM [falling, single point]",–
Cc1ccccc1NC(=O)/C(C#N)=C/c1ccsc1,"32.6 µM [falling, single point]",–
COc1ccc(/C=C2\C(=O)c3ccccc3OC2c2ccccc2)cc1 (configuration not stated),"15.8 µM [rising, single point]",–
COc1ccc(-c2cc(N3CCCC3)n3ncnc3n2)cc1,"2.06 µM [rising, partial curve, poor fit]",–
N#C/C(=C\c1c(F)cccc1Cl)c1nn(-c2ccccc2)c(-n2cccc2)c1C#N,"0.794 µM [falling, full curve, poor fit]",–
CCCCN1CCc2c1nc1ccc(Br)cc1c2N,"7.31 µM [falling, single point]",–
CC1=CC(C)(C)N(C(=O)c2ccccc2)c2ccccc21,"35.5 µM [rising, single point]",–
COc1ccc(-c2cc(C(F)(F)F)n3nc(C(=O)NCc4ccco4)cc3n2)cc1OC,"0.103 µM [rising, full curve, poor fit]",–
Cc1ccccc1C(=O)Nc1ccc(Br)cn1,"4.47 µM [falling, partial curve]",–
COc1ccc(S(=O)(=O)N2CCCCCC2)cc1C(=O)Nc1cc(C)ccn1,"23.1 µM [falling, single point]",–
COc1ccc(OC)c(C2/C(=C(\O)c3ccc(OC)c(Cl)c3)C(=O)C(=O)N2CCN(C)C)c1 (configuration not stated),"6.51 µM [rising, single point]",–

# Structural class, the entries above with nitrogen in an aromatic ring.
Structure (SMILES),AC50 [1],AC50 [2]
COC(=O)c1[nH]c2ccc(Cl)cc2c1NC(=O)CCN1CCN(C2CCCCC2)CC1,"13 µM [rising, partial curve, poor fit]",–
Cc1cccc2sc(N(CCCN(C)C)C(=O)c3cc4ccccc4oc3=O)nc12,"23.1 µM [falling, single point]",–
CN(c1ccccc1)S(=O)(=O)c1ccc(Cl)c(C(=O)Nc2nc3ccccc3[nH]2)c1,"9.2 µM [falling, partial curve]",–
Cc1cc(C)cc(OCCn2c(C3CC(=O)N(c4ccccc4Cl)C3)nc3ccccc32)c1 (configuration not stated),"2.06 µM [rising, full curve]",–
CC(C)n1cnc2cc(NCc3ccco3)ccc21,"7.08 µM [rising, full curve]",–
Cc1occc1-c1nnc(SCC(=O)c2cc3ccccc3oc2=O)o1,"14.1 µM [falling, single point]",–
Cc1nnc(N/N=C/c2c(Cl)cccc2Cl)n1N,"5.62 µM [rising, single point]",–
Cc1[nH]c(-c2ccc(F)cc2)cc1C(=O)N1CCN(c2ccccc2)CC1,"17.8 µM [falling, single point]",–
COc1ccc(-c2cc(N3CCCC3)n3ncnc3n2)cc1,"2.06 µM [rising, partial curve, poor fit]",–
N#C/C(=C\c1c(F)cccc1Cl)c1nn(-c2ccccc2)c(-n2cccc2)c1C#N,"0.794 µM [falling, full curve, poor fit]",–
CCCCN1CCc2c1nc1ccc(Br)cc1c2N,"7.31 µM [falling, single point]",–
COc1ccc(-c2cc(C(F)(F)F)n3nc(C(=O)NCc4ccco4)cc3n2)cc1OC,"0.103 µM [rising, full curve, poor fit]",–
Cc1ccccc1C(=O)Nc1ccc(Br)cn1,"4.47 µM [falling, partial curve]",–
COc1ccc(S(=O)(=O)N2CCCCCC2)cc1C(=O)Nc1cc(C)ccn1,"23.1 µM [falling, single point]",–

# Later entries.

Structure (SMILES),AC50 [1],AC50 [2]
COc1ccccc1-c1nc(C#N)c(N2CC(C)CC(C)C2)o1 (configuration not stated),"35.5 µM [falling, single point]",–
CC(C)=CC(=O)Nc1nc2ccc([N+](=O)[O-])cc2s1,"10 µM [falling, partial curve, poor fit]",–
CC(C)NC(=O)c1onc(CSc2ccc(F)cc2)c1C(=O)O,"35.5 µM [falling, single point]",–
CN(CCOc1ccc(Cl)cc1)C(=O)c1ccc(S(=O)(=O)N2CCOCC2)cc1,"35.5 µM [falling, single point]",–
Cc1cccc(NC(=O)COc2ccc3c(c2)CCC3)n1,"6.51 µM [falling, partial curve, poor fit]",–
C/C(=N/NS(=O)(=O)c1ccc(Cl)cc1)c1ccncc1,"11.2 µM [falling, partial curve]",–
CCC(=O)Nc1ccc(NC(=O)c2ccc3c(c2)OCO3)cc1,"5.8 µM [falling, full curve, poor fit]",–
CCOC(=O)C(=CNc1ccc2c(c1)c1ccccc1n2CC)C(=O)OCC,"15.8 µM [falling, partial curve, poor fit]",–
CCc1c(C)nc(SCC(=O)Nc2ccc(Br)cc2)[nH]c1=O,"1.46 µM [falling, partial curve, poor fit]",–
CC(C)Oc1ccc(C(=O)Nc2ccccc2N2CCCC2)cc1,"29.1 µM [falling, single point]",–
Cc1ccccc1C(=O)NC(=S)Nc1ccc(S(=O)(=O)N2CCOCC2)cc1,"2.31 µM [falling, full curve]",–
CCc1ccc(C(=O)N2CCN(c3ccc(NC(=O)c4cccnc4)cc3)CC2)cc1,"35.5 µM [falling, single point]",–
COc1ccccc1N1C(=O)CC(Nc2ccc(N3CCOCC3)cc2)C1=O (configuration not stated),"35.5 µM [falling, single point]",–
CC(=O)Nc1ccc(C(=O)OCC(=O)NC(=O)NC(C)(C)C)cc1,"11.6 µM [falling, partial curve, poor fit]",–
Cc1c(N=Cc2ccc[nH]2)c(=O)n(-c2ccccc2)n1C,"15.8 µM [rising, single point]",–
O=C(c1ccc([N+](=O)[O-])cc1Cl)N1CCN(c2ccccn2)CC1,"35.5 µM [falling, single point]",–
O=Cc1c(Nc2cccc(C(F)(F)F)c2)nc2ccccn2c1=O,"0.282 µM [rising, full curve, poor fit]",–
COc1ccnc2c1c(=O)n(Cc1cccc(F)c1)c(=O)n2C,"3.16 µM [falling, full curve, poor fit]",–
O=C(NN1C(=O)C2C(c3ccccc3)C=CC(c3ccccc3)C2C1=O)c1ccccc1 (configuration not stated),"20.6 µM [falling, single point]",–
NC(=O)COC(=O)CCCSc1nc2ccccc2s1,"11.2 µM [falling, partial curve, poor fit]","0.282 µM [rising, partial curve, poor fit]"
O=C(N/N=C/c1cccc(NC(=O)c2ccc(Cl)cc2)c1)c1cccc(O)c1,"1 µM [falling, full curve, poor fit]",–
CCC(C)C(=O)Nc1nnc(SCC(=O)Nc2ccc(F)cc2)s1 (configuration not stated),"35.5 µM [rising, partial curve, poor fit]",–

Structure (SMILES),AC50 [1],AC50 [2]
COc1ccc(CN(C)C(=O)c2cc(-c3ccc(C)cc3C)nc3ccccc23)c(OC)c1OC,"22.4 µM [falling, single point]",–
O=C(c1ccccc1)c1ccc(OCC(=O)N2CCOCC2)cc1,"35.5 µM [falling, single point]",–
CCOC(=O)c1ccccc1NC(=O)CN(c1ccccc1OC)S(=O)(=O)c1ccc(C)cc1,"3.16 µM [falling, single point]",–
O=C(/C=C/c1ccc2c(c1)OCO2)Nc1nc2ccccc2s1,"0.92 µM [falling, full curve, poor fit]",–
CCOc1cc(N2CCOCC2)c(OCC)cc1NCC(=O)N1CCN(Cc2ccccc2)CC1,"3.55 µM [rising, single point]",–
Cc1cccc(Cn2c(CN3CCC(C(=O)NCCc4ccccc4)CC3)cc3ccccc32)c1,"15.8 µM [falling, single point]",–
Cc1ccc(CSCC(=O)N2CCN(Cc3ccc4c(c3)OCO4)CC2)cc1,"16.4 µM [falling, single point]",–
O=C(Nc1cccc2ccccc12)N1CCc2ccccc2C1,"8.2 µM [falling, partial curve]",–
Cc1ccc(NS(=O)(=O)c2ccc(OCC(=O)Nc3cccc([N+](=O)[O-])c3)c(C)c2)cc1,"12.6 µM [falling, partial curve, poor fit]",–
NC(=O)CS(=O)(=O)c1nc2ccccc2n1CC(=O)N1CCCCC1,"29.1 µM [rising, single point]",–
COc1ccc(CCC(C)NCc2ccc(C(F)(F)F)cc2)cc1 (configuration not stated),"35.5 µM [falling, single point]","35.5 µM [rising, partial curve, poor fit]"
NC(=O)c1ccccc1NC(=O)/C=C/c1ccc(Cl)cc1,"13 µM [falling, single point]",–
C/C(=N/NC(=O)c1sc(NS(=O)(=O)c2ccccc2)nc1C)c1ccc(F)cc1,"7.31 µM [falling, partial curve, poor fit]",–
O=C(Nc1cc(-c2ccccc2)cs1)c1ccco1,"16.4 µM [falling, single point]",–
CC(=O)c1cccc(CN2CCCCC2C(=O)Nc2ccc(Oc3ccccc3)nc2)c1 (configuration not stated),"2 µM [rising, partial curve]",–
COc1ccc(C2c3c(-c4ccccc4O)n[nH]c3C(=O)N2Cc2ccco2)cc1 (configuration not stated),"8.91 µM [falling, partial curve, poor fit]",–
CCOC(=O)N1CCN(C(=O)Nc2ccc3nc(C)c(C)nc3c2)CC1,"11.2 µM [falling, partial curve]",–
Cc1cccc(NC(=O)CSc2cccc3cccnc23)c1,"3.98 µM [falling, partial curve, poor fit]",–
COC(=O)c1cc(Nc2cc(C)nc3ncnn23)cc(C(=O)OC)c1,"32.6 µM [rising, single point]",–
Cc1ccc(S(=O)(=O)N(CCCO)CC(O)CON=C2c3ccccc3-c3ccccc32)cc1 (configuration not stated),"29.1 µM [falling, single point]",–

# Single records (already shown):
# `COc1ccc(C2c3c(-c4ccccc4O)n[nH]c3C(=O)N2Cc2ccco2)cc1` (configuration not stated) as listed: AC50 [1]: 8.91 µM [falling, partial curve, poor fit]
# `COC(=O)c1cc(Nc2cc(C)nc3ncnn23)cc(C(=O)OC)c1` as listed: AC50 [1]: 32.6 µM [rising, single point]
